Assay results published in PMC9834055.
No constants are given. Whether binding was seen depends on the method and setting. Some binding calls cover weakened binding; strength is not graded here. Sequences can lack the tags named with a protein.

Protein sequences, listed by entry. Tags and fused reporters are not part of them.
UniProt P25156: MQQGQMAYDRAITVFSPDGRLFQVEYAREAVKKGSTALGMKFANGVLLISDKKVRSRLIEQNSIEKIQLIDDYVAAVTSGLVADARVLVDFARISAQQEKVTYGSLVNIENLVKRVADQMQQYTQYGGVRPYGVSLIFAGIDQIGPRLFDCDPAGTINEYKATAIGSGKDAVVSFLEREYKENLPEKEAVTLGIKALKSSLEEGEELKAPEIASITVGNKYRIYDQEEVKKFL

Molecular target: T1, 20S proteasome β subunit, His-tagged (UniProt P28061)
T1 sequence: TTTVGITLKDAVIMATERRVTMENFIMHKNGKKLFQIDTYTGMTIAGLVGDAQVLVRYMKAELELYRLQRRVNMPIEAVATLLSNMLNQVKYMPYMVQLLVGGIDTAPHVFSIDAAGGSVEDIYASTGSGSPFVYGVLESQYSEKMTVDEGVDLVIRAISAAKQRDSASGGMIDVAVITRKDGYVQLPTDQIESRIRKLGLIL
Experiment: cryo-EM structure; single-particle cryo-EM and cryo-ET of 0.2 μM 20S proteasome on UFG and rough graphene grids; complex purified by the His tag of the β subunit on a nickel column; both purified

Substance: 20S proteasome α subunit (from UniProt P25156 1-233)
- binding: binds
